Source: publication PMC4632396
Results are given in words; binding and its absence hold for the method and conditions named. In cells and extracts the contact can be indirect.

Protein sequences, listed by entry. Tags and fused reporters are not part of them. Lines headed by an entry give the natural chain unless they say otherwise; changes in a name come on top. Residues count along the entry.
UniProt Q10589, residues 1-161: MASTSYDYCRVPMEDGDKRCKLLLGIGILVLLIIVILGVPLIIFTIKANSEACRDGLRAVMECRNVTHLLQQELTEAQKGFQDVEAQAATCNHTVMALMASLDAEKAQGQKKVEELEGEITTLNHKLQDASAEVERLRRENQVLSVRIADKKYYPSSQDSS
UniProt Q05320: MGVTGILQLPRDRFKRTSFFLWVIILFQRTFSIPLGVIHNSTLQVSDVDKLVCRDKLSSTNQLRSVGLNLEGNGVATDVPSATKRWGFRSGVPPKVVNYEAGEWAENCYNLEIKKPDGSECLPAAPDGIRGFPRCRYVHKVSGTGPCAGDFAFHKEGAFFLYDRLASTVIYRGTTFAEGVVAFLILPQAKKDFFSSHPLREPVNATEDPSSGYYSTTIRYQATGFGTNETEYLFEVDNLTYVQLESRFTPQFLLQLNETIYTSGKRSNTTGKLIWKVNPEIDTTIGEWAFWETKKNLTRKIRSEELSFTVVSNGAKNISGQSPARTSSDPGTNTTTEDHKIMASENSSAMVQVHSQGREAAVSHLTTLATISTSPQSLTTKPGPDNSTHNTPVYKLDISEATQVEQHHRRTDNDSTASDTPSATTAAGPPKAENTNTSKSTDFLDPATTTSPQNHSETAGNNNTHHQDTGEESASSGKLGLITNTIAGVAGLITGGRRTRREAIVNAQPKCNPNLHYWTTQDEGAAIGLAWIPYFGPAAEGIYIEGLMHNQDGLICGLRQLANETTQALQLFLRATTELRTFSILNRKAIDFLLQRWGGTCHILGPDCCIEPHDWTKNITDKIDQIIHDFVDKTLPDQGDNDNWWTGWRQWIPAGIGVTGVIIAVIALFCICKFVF

Biological target: human tetherin (human) (UniProt Q10589)
Assay: co-IP

With “mature full-length Ebola virus glycoprotein (EboGP cleaved into GP1 and GP2) (from UniProt Q05320) (complex)” the binding was “no binding”.
